# PubChem BioAssay AID1259290 – Sanger Institute | 2017
# Purpose: 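Identify kinases needed for colorectal cancer cell survival, with or without anchor drugs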 (primary screen)
# Cells: human SNUC1 colorectal cancer cells
# Reagent: siRNA pool against human genes
# Conditions: anchor drugs BYL719 1 µM, cetuximab 5 µg/ml or trametinib 10 nM, or DMSO vehicle alone
# Detection: 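Viability averaged over replicates and scaled to non-targeting siRNA, robust z-score with no drug, and synergy scores by drug for BYL719, cetuximab and trametinib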
# Scale: viability z-score, siRNA alone: higher = more viable cells; low values mean essential gene; viability vs control, siRNA alone: higher = more viable cells; synergy score with BYL719 and synergy score with Cetuximab and synergy score with Trametinib: higher = stronger synthetic lethal effect with drug
# Call rule: 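Essential when the robust viability z-score with siRNA alone falls below -3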
# Meaning of the calls: active = essential: knock-down alone cut viability (z below -3); inactive = no clear viability loss with knock-down alone
# The deposit covers 794 reagents; below is an unselected part. 9 of them (1.1%) count as active. 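Calls rest on knock-down alone, not drug synergy; synergy above 0.15 was grouped apart and does not affect calls.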 A number with no mark means an inactive call. No viability above 1 is reported: the scale is capped. The record does not give: the amount of reagent, the time to read-out.
Gene,"viability z-score, siRNA alone","viability vs control, siRNA alone",synergy score with BYL719,synergy score with Cetuximab,synergy score with Trametinib
NEK7 (NIMA related kinase 7),-0.0639,0.91,-0.151,-0.00726,-0.172
RAD21 (RAD21 cohesin complex component),0.936,1,0.0876,0.00707,0.0685
DAPK1 (death associated protein kinase 1),-0.137,0.903,-0.22,-0.125,0.0474
DAPK2 (death associated protein kinase 2),-0.188,0.899,-0.203,-0.0042,0.0197
PRPS1 (phosphoribosyl pyrophosphate synthetase 1),-1.73,0.76,-0.0952,-0.141,0.0738
EFNB3 (ephrin B3),-1.02,0.824,-0.156,-0.0392,-0.000475
STK36 (serine/threonine kinase 36),-1.24,0.804,-0.33,-0.232,-0.139
TNNI3K (TNNI3 interacting kinase),-0.992,0.826,-0.102,-0.017,0.00625
PIK3C2B,0.27,0.94,-0.184,0.0344,-0.0572
CAMK2G (calcium/calmodulin dependent protein kinase II gamma),0.936,1,-0.103,-0.0337,-0.0959
CALM1 (calmodulin 1),-1.92,0.743,-0.135,0.0313,-0.0388
"FES (FES proto-oncogene, tyrosine kinase)",0.5,0.961,-0.107,0.147,-0.0536
TBK1 (TANK binding kinase 1),0.16,0.93,-0.163,-0.0015,-0.0415
IDH2 (isocitrate dehydrogenase (NADP(+)) 2),0.153,0.929,-0.0998,-0.0132,-0.0531
FASTK (Fas activated serine/threonine kinase),0.547,0.965,0.0235,0.119,0.0227
TAB1 (TGF-beta activated kinase 1 (MAP3K7) binding protein 1),0.936,1,-0.109,-0.0447,0.0627
FLT1 (fms related receptor tyrosine kinase 1),0.612,0.971,-0.222,-0.0726,-0.00514
CDC7 (cell division cycle 7),0.31,0.944,0.0353,-0.0986,0.218
CLSPN (claspin),0.936,1,-0.148,-0.0447,-0.0363
DYRK2 (dual specificity tyrosine phosphorylation regulated kinase 2),0.936,1,-0.198,-0.0447,0.0856

An excerpt taken from the entries so far, for reference:
Gene,"viability z-score, siRNA alone","viability vs control, siRNA alone",synergy score with BYL719,synergy score with Cetuximab,synergy score with Trametinib
TNNI3K (TNNI3 interacting kinase),-0.992,0.826,-0.102,-0.017,0.00625
PIK3C2B,0.27,0.94,-0.184,0.0344,-0.0572
